This passage reports binding results from doi:10.1101/2025.03.19.644080.

The target in experiment [1] is Phloem Protein 2 (CsPP2), endogenous in cucumber (Cucumis sativus (endogenous in cucumber leaves)) (UniProt Q8LK13). As to the kind of experiment: co-IP.
Experiment [2] shares this target. The experiment is described as follows: co-IP. The source holds these as a separate data set.

Like-named read-outs stand apart in the source and are kept apart here. No constants are given. Whether binding was seen depends on the method and setting. Binding seen in cells or lysates may run through a third protein. Binding calls can cover weak binding; strength is not graded here.

Consider “Tetraspanin 8 (CsTET8), endogenous in cucumber (from UniProt A0A0A0LTZ1)”, for which the binding entry in experiment [1] and in experiment [2] was “binds” each time.
